Measurements reported in PubChem BioAssay AID1159578 (Peter MacCallum Cancer Centre, 2015).
Purpose: 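siRNA pools altering how lymphatic endothelial cells close a scratch wound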 (primary screen). System: human lymphatic endothelial cells. Knock-down reagent: siRNA pool against human genes, 40 nM. Timing: 48 h after transfection. Measured: 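High-content imaging of dye-stained cells in a scratch assay measures filled wound area and nuclei per well; duplicate means given as ratio to mock and robust z-score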. Reading the numbers: migration robust z-score: higher = faster migration into the scratch; nuclei per well: higher = more cells in the well. Rule for the call: 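Pools averaging fewer than 3300 nuclei are never called; remaining pools count as changed when migration robust z lies outside -2 to 2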. Calls: active = migration changed; inactive = no migration change, or too few cells.
In all, the deposit lists about 18,000 reagents; below is a part drawn at random. About 1,030 of them (5.7%) count as active. 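Inactive calls also include pools with fewer than 3300 nuclei, whose migration was not assessed.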 The raw values are shown without normalisation. Not all columns of the deposit are shown.

For COPG1, what was measured?
migration robust z-score: -0.88; nuclei per well, duplicate mean: 6167; call: inactive

With TSLIG3C, what was measured?
migration robust z-score: -0.38; nuclei per well, duplicate mean: 5034; call: inactive

How did the screen score MEFV?
migration robust z-score: 0.64; nuclei per well, duplicate mean: 6448; call: inactive

What did the screen give for DKK1?
migration robust z-score: -0.81; nuclei per well, duplicate mean: 5480; call: inactive

What did the screen give for FAXC?
migration robust z-score: -1.77; nuclei per well, duplicate mean: 5328; call: inactive

For HTR7, what was measured?
migration robust z-score: -0.68; nuclei per well, duplicate mean: 5554; call: inactive

2 entries from above, sorted by “nuclei per well, duplicate mean”, low to high.
FAXC → migration robust z-score: -1.77; nuclei per well, duplicate mean: 5328; call: inactive
DKK1 → migration robust z-score: -0.81; nuclei per well, duplicate mean: 5480; call: inactive

More results follow:
For KIF22, what was measured?
migration robust z-score: -1.22; nuclei per well, duplicate mean: 4699; call: inactive

What is on record for GRXCR1?
migration robust z-score: 0.68; nuclei per well, duplicate mean: 5618; call: inactive

For RAB39B, what does the deposit list?
migration robust z-score: -0.16; nuclei per well, duplicate mean: 6206; call: inactive

For AMZ1, what was measured?
migration robust z-score: 0.7; nuclei per well, duplicate mean: 6310; call: inactive

What is on record for ZSCAN32?
migration robust z-score: 0.49; nuclei per well, duplicate mean: 4499; call: inactive

For ATP6V1H, what was measured?
migration robust z-score: -1.06; nuclei per well, duplicate mean: 6183; call: inactive

With GINM1, what does the deposit list?
migration robust z-score: 1.69; nuclei per well, duplicate mean: 4788; call: inactive

For AZGP1, what does the deposit list?
migration robust z-score: -1.14; nuclei per well, duplicate mean: 5368; call: inactive
